Our source for the binding values is doi:10.1101/219246.

By UniProt entry, the sequences of proteins in these tests, tags left out. Where a name states a change or a piece, a line headed by the entry shows the natural chain unless it says otherwise. Chains listed by the source or under a name are the forms on record and can include a tag or linker.
p135 with N-terminal Twin-Strep tag (Q14203, form named): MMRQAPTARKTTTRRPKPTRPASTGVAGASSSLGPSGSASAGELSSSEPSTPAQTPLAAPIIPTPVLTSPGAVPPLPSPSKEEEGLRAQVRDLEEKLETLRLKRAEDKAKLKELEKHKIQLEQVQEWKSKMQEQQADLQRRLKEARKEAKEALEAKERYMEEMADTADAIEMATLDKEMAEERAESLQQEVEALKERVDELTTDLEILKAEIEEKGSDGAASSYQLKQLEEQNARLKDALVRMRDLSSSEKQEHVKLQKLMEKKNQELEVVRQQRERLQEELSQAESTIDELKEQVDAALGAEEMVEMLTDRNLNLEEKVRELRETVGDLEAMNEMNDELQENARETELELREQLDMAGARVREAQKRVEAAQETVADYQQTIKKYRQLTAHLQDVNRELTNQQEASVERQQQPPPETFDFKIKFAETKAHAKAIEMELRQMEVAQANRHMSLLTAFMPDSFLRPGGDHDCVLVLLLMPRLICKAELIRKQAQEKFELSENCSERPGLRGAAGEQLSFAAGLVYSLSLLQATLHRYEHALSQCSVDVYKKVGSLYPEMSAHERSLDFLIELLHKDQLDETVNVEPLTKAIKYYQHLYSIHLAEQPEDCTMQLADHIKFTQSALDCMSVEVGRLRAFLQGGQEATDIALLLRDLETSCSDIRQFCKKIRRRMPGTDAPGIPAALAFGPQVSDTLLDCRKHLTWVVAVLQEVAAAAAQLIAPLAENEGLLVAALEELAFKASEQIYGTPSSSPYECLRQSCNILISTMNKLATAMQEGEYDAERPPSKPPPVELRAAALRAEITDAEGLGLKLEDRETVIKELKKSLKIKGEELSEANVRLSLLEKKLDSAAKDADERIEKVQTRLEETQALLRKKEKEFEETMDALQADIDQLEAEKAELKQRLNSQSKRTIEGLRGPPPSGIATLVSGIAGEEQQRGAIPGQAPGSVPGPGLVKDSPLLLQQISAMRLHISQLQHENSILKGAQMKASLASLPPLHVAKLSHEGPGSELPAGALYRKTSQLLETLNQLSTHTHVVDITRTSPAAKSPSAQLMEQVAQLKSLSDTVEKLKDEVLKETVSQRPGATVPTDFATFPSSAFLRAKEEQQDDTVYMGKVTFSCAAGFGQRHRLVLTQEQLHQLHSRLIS
UniProt O00471: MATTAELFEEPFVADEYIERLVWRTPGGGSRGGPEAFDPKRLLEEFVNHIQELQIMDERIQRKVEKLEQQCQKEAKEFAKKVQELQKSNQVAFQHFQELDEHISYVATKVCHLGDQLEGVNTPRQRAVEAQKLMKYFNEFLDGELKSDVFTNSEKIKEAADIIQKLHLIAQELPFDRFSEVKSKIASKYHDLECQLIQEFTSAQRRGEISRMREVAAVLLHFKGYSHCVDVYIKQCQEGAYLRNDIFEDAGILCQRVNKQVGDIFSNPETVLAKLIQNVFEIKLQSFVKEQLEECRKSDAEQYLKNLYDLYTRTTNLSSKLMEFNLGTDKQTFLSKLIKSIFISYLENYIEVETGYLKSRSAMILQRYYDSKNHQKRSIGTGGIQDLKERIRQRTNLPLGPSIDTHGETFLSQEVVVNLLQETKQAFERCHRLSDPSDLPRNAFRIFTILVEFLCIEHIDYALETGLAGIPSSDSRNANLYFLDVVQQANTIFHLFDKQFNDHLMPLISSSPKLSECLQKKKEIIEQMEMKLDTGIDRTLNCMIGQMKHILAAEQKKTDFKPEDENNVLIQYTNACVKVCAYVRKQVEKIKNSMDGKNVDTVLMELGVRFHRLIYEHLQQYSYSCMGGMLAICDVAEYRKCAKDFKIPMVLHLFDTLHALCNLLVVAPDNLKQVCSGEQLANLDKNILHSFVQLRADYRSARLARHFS
UniProt O00399: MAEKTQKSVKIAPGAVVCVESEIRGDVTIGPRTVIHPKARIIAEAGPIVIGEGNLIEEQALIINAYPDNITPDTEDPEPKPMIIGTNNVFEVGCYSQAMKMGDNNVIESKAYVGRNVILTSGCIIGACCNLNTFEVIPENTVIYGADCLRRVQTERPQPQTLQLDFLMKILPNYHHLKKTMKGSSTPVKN
UniProt Q8TAG9: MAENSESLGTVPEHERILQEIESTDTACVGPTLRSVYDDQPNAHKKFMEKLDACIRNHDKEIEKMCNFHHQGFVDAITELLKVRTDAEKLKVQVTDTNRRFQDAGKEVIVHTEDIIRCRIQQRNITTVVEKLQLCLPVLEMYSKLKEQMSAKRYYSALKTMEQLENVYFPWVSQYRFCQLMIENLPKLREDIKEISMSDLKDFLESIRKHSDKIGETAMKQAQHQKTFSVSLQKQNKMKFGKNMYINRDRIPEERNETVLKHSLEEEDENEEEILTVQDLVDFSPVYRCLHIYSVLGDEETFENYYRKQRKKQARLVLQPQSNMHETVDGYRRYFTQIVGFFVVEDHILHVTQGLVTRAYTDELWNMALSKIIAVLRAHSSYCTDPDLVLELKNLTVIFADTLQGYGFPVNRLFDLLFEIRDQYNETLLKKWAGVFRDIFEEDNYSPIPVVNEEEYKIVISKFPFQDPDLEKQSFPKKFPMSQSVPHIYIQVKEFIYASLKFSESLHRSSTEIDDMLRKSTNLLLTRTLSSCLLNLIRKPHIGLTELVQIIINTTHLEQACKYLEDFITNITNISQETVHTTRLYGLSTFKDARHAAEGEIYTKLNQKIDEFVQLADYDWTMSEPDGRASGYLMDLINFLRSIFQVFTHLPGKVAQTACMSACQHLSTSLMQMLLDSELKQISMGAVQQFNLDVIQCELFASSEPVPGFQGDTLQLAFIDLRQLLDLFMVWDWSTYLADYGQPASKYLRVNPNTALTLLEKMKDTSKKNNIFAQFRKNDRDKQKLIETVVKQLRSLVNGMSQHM
UniProt O75935: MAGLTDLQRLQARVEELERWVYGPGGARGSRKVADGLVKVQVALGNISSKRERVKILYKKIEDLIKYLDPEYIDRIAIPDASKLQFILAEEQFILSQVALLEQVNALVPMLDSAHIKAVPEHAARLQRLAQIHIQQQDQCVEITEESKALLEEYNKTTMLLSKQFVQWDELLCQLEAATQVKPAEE
UniProt Q9BTE1: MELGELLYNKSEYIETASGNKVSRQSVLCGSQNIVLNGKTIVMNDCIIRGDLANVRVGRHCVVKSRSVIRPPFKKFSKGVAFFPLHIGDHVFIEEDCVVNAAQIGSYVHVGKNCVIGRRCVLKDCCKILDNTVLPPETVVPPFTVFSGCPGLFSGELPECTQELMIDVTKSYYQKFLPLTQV
UniProt P47756: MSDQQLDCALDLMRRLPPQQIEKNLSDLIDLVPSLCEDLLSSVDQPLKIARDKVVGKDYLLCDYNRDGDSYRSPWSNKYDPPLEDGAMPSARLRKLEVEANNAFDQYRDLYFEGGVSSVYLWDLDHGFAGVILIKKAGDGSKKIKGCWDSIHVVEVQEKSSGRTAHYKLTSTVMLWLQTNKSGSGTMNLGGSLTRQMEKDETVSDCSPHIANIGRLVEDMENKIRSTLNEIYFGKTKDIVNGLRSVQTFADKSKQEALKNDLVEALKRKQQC
UniProt Q9UJW0: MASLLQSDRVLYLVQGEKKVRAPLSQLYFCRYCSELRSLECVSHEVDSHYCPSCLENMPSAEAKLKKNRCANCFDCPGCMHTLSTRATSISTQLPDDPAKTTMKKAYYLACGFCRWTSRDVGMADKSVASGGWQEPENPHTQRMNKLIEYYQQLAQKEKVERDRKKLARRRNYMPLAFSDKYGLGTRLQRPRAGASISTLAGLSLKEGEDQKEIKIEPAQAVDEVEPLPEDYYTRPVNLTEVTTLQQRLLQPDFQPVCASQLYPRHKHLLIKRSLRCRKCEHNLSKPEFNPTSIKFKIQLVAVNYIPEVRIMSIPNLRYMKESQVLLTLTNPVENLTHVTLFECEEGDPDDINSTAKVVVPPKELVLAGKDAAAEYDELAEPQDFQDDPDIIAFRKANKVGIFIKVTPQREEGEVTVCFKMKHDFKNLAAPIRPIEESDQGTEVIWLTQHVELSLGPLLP
UniProt P61163: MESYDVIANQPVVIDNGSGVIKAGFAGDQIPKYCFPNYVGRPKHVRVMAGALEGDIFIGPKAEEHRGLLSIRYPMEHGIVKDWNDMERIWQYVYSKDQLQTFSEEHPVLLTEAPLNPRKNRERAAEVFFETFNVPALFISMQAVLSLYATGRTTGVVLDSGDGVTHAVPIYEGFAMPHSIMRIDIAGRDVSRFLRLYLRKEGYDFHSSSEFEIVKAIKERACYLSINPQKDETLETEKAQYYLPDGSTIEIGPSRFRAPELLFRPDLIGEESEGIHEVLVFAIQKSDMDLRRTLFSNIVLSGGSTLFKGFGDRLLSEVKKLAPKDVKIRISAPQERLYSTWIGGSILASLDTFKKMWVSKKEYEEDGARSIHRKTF
UniProt Q9NZ32: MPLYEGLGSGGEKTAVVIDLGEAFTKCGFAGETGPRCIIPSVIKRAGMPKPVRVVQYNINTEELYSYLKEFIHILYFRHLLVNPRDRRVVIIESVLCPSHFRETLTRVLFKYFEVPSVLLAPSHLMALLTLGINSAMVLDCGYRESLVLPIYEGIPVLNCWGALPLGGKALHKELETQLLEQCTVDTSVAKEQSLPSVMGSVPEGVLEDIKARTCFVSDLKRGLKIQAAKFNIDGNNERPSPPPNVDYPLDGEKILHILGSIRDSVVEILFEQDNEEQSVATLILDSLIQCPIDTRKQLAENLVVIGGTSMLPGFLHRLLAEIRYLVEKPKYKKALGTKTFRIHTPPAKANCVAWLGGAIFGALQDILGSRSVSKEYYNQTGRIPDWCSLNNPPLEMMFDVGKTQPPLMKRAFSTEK

Results are given in words; binding and its absence hold for the method and conditions named. For part of these data: Binding seen in cells or lysates may run through a third protein. Some binding calls cover weakened binding; strength is not graded here.

The target of assay [1] is p135 with N-terminal Twin-Strep tag (human) (UniProt Q14203). The assay can be described thus: native gel or EMSA. For orientation: A gel shift assay detects complexes by their altered migration in electrophoresis.
For assay [2] the target is unchanged. The assay can be described thus: pull-down.
The target in assay [3] is N-terminal Twin Strep-tagged EXOC5 (human) (UniProt O00471). The assay can be described thus: pull-down.

Consider p27 (from UniProt O00399 1-190), for which the binding result in assay [1] and in assay [2] was “binds” throughout.

On to EXOC6 (from UniProt Q8TAG9 1-804), for which, in assay [3], the binding entry is “binds”.

For p24 (from UniProt O75935 1-186), the binding entry in assay [1] and in assay [2] was “binds” throughout.

For the substance p25 (from UniProt Q9BTE1 1-182), the binding entry in assay [1] and in assay [2] was “binds” throughout.

CapZβ (from UniProt P47756 1-272): the binding result in assay [1] and in assay [2] was “binds” in each case.

In the case of p62 (from UniProt Q9UJW0 1-460), the binding entry in assay [1] and in assay [2] was “binds” throughout.

Regarding Arp1 (from UniProt P61163 1-376), the binding entry in assay [1] and in assay [2] was “binds” each time.

As for Arp11 (from UniProt Q9NZ32 1-417), the binding entry in assay [1] and in assay [2] was “binds” in each case.
